Among the data in publication PMC4350284 are binding values, retold here.

Amino acid sequences for entries named in this document (tags omitted). A change or cut given only in a name is not applied to a line headed by its entry. Residues count along the entry.
UniProt P42230: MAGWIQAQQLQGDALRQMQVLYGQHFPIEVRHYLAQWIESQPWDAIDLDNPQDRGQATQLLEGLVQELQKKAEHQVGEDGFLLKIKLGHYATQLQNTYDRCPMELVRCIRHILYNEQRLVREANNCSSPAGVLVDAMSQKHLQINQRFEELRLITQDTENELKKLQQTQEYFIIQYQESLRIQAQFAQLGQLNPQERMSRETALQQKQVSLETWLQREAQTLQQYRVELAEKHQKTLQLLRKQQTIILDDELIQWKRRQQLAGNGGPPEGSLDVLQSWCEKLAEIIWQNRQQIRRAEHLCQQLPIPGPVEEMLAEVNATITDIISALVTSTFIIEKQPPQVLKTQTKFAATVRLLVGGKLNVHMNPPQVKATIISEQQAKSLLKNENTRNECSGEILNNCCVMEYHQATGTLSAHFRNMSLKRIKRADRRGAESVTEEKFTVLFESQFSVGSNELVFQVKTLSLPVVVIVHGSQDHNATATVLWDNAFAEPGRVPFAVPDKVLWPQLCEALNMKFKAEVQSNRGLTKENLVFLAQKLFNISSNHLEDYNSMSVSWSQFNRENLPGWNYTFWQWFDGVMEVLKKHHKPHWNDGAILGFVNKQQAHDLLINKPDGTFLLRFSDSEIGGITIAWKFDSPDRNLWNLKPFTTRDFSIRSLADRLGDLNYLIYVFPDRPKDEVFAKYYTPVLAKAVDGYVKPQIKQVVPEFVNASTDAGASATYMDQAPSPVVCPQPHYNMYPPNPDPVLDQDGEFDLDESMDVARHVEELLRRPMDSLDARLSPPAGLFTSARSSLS
UniProt P08631, residues 22-526: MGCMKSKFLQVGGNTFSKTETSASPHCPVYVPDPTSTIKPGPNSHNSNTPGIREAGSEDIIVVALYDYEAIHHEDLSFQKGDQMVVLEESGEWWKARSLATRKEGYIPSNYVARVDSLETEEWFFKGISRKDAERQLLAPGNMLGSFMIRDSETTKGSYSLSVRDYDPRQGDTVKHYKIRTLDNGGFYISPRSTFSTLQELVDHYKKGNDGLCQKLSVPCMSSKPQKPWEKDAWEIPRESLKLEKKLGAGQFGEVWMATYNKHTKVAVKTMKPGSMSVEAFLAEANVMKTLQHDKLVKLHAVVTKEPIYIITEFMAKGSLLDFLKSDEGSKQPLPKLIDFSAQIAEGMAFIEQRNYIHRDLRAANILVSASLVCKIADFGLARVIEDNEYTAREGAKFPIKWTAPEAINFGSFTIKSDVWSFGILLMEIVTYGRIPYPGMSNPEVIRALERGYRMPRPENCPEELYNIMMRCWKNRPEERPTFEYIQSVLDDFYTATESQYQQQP

Test [1] addresses STAT5A^R618Q-eYFP (murine) (UniProt P42230). Put plainly: co-IP; HeLa T-REx FRT cells co-transfected with STAT5A-eYFP constructs and vSrc-dsRed or Hck-dsRed constructs, 24 h; RIPA lysate; STAT5A-eYFP precipitated with anti-GFP on Protein G Sepharose over night at 4°C; blot for Src or Hck.
In test [2] the target is T1, non-phosphorylated Src-peptide (activation loop, tyrosine 416).
T1 sequence (peptide, biotinylated): RLIEDNEYTARQGAK
The test is described as follows: pull-down; 25 nmol biotinylated peptide on NeutrAvidin agarose incubated with 1 mg cleared lysate of HeLa T-REx FRT cells over night at 4°C; storage buffer 150 mM NaCl, 50 mM Tris-HCl pH 7.5, 0.5% Nonidet P-40; blot with anti-GFP; only the target purified.

In test [3] the target is T2, phosphorylated Src-peptide (activation loop, phosphotyrosine 416).
T2 sequence (peptide, phosphotyrosine 416 (the Y of the peptide); biotinylated): RLIEDNEYTARQGAK
The test is described as above.

The target in test [4] is STAT5A^S710F-eYFP (murine) (UniProt P42230). Put plainly: native gel or EMSA; blue native PAGE (4-16% Bis-Tris, over night at 4°C) of native lysates (2% digitonin) of HeLa T-REx HA-EpoR cells (with Epo) or HeLa T-REx vSrc-dsRed cells (with doxycycline); dimers and monomers detected by eYFP fluorescence. (In general: Mobility shift assays separate free from complexed probe on a gel.)

Results are given in words; binding and its absence hold for the method and conditions named. For some of these results: In cells and extracts the contact can be indirect. Some results given as binding are weak or reduced against the parent protein; the word gives no strength.

Regarding “Hck-dsRed (from UniProt P08631-2 1-505) (enzyme)”, the binding result in test [1] is listed as “binds”. As for “STAT5A^R618Q-eYFP (from UniProt P42230 1-793)”, the binding result in test [2] and in test [3] was “no binding” in each case.

Regarding “STAT5A^S710F-eYFP (from UniProt P42230 1-793)”, in test [4], the binding entry is listed as “binds”.
